Laboratory results: PubChem BioAssay AID743266 (National Center for Advancing Translational Sciences (NCATS), 2014)
The campaign covered roughly 410,000 compounds. About 310 (0.076%) were called active. The inconclusive results got no clear call from the source; some entries with a clear call stand among them for comparison. Calls come from the whole dose curve; as a rule, active = well fitted activation curve with a large enough effect; inconclusive = small, poorly fitted or top-dose-only effect, or another doubt; inactive = no such curve, though single readings can be large or run the other way. Where the call is inconclusive, the potency comes from a doubtful curve fit.

Amino acid sequences for entries named in this document (tags omitted). A change or cut given only in a name is not applied to a line headed by its entry.
UniProt Q03431: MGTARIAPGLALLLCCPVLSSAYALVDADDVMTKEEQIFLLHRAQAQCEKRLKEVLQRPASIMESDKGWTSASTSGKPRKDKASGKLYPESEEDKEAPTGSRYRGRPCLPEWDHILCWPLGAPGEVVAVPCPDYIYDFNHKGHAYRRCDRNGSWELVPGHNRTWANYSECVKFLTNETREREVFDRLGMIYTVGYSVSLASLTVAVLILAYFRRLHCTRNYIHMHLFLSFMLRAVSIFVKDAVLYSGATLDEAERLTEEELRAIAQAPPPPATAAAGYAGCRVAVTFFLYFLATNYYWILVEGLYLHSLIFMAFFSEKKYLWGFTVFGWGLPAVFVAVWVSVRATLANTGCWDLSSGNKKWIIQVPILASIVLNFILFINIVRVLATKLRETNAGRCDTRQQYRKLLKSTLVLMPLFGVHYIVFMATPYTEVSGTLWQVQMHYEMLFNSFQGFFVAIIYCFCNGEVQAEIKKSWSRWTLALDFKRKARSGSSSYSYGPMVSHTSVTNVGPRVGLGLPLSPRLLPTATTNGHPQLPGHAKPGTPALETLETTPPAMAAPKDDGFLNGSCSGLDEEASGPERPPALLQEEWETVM

target: Parathyroid hormone/parathyroid hormone-related peptide receptor (Homo sapiens) (UniProt Q03431); assay: qHTS for PTHR1 Agonists: Primary Screen; settings: HEK293 GP2 PTHR1 cells, GloSensor cAMP luminescence, 1 h; activation: at 115 µM (top of the series) unless noted; series mostly up to 115 µM; note: nearly all actives have a fitted effect of over 55% in size
In short: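 HEK-293-derived GP2 cells expressing PTHR1 and a GloSensor cAMP reporter, 3,000/well, plated overnight, given luciferin plus IBMX (each 0.5 mM as added) for 1 h at 37 °C, then compound for 1 h at 37 °C. Luminescence was read after 15 min at room temperature.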
Potency is the fitted concentration of half-maximal effect.

Question: For `O=C(c1ccccc1)c1ccc(OCC(O)CNCc2cccc(Cl)c2)cc1` (configuration not stated), which Potency is on record?
Answer: Its Potency is inconclusive: 50.1 µM [activator, single point].

Question: Which Potency does the source give for `CC(C)c1ccc(/C=C2\Oc3c(ccc(O)c3CN3CCN(C)CC3)C2=O)cc1` here?
Answer: The Potency was inconclusive: 35.5 µM [activator, full curve, poor fit].

Question: Which activation does the source give for `COC(=O)c1cccc(-n2nnnc2SCC(=O)Nc2nc3c(s2)CCCC3)c1` here?
Answer: The activation was inconclusive: -87.3% [activator] [at 57.5 µM].

Question: Which Potency does the source give for `Cc1cccc(N2CCN(c3c4c(nc5nncn35)CCC4)CC2)c1C` here?
Answer: The Potency was inconclusive: 126 µM [activator, single point].

Question: Which Potency does the source give for `Cc1ccc(CN2C(=O)c3ccccc3Sc3ccc(C(=O)NCCCN4CCOCC4)cc32)cc1` here?
Answer: Its Potency is “inactive”.

Question: How did the “activation” value turn out when `COc1ccc(/C(C)=N/NC(=S)NCCc2ccccc2)cc1` was run?
Answer: Its value is inactive: -14.8%.

Question: `COc1cccc(N(CC(=O)NCCSc2ccccn2)S(=O)(=O)c2ccccc2)c1` was tested. Which activation did it give?
Answer: The activation was inconclusive: -31.3% [activator].

Question: Which “outcome” value does the source give for `Cc1ccccc1NC(=O)c1c([N+](=O)[O-])c(C(C)(C)C)nn1C` here?
Answer: Its value is “inactive”.

Question: Which “activation” value does the source give for `Cc1ccc(C(=O)CSc2nnc(C(C)C)n2C)cc1C` here?
Answer: Its value is inactive: -9.57%.

Question: How did the “activation” value turn out when `CCCCCc1ccc(C(=O)CCCC)c(=S)[nH]1` was run?
Answer: The value was inactive: -4.72%.

Question: For `CCCCC[C@H]1CN(CCc2ccccc2)C(=O)[C@@H]1CC(=O)NCc1ccc(OC)cc1`, which “activation” value is on record?
Answer: The value was inactive: -52.1%.

Question: Which Potency does the source give for `COc1ccc(CCNC(=O)C2CC(=O)N(C3CCCCCCC3)C2)cc1OC` (configuration not stated) here?
Answer: The Potency was inconclusive: 0.562 µM [activator, partial curve, poor fit].

Question: `COc1ccc(N/C=C/C(=O)c2cc(OC)c(OC)c(OC)c2)cc1` was tested. Which Potency did it give?
Answer: The Potency was inconclusive: 17.8 µM [activator, partial curve, poor fit].

Question: With `COc1ccc(NC(=O)C(=O)NCC2(c3ccccc3)CCCC2)c(OC)c1` as the compound, how does the Potency read?
Answer: The Potency was inconclusive: 100 µM [activator, single point].

Question: Which activation does the source give for `COc1ccc(-c2nc3ccccc3o2)cc1NC(=O)c1ccc(-c2ccc(C)c(Cl)c2)o1` here?
Answer: The activation was inconclusive: 5.98% [activator].

Question: With `CCOc1ccc(OCC)c(Nc2nc3ccccc3n3nnnc23)c1` as the compound, how does the activation read?
Answer: The activation was inconclusive: 30.2% [activator].

Question: How did the activation turn out when `NCCCCCc1nnc(SCc2ccc(Cl)cc2Cl)o1` was run?
Answer: Its activation is inconclusive: 37.7% [activator].

Question: With `COc1cccc(CNC(=O)c2ccc3oc(=O)n(Cc4ccccc4)c3c2)c1` as the compound, how does the “activation” value read?
Answer: Its value is inactive: -8.83%.

Question: Which Potency does the source give for `COCCNC(=O)c1ccc2c(c1)NC(=O)C(CS(=O)(=O)Cc1ccc(F)cc1Cl)N2` (configuration not stated) here?
Answer: The Potency was inconclusive: 89.1 µM [activator, partial curve, poor fit].

Question: Which “activation” value does the source give for `CN1C(=O)[C@H]2[C@@H](c3ccc(C(F)(F)F)cc3)N[C@]3(CCCN(Cc4ccc(Cl)cc4)C3=O)[C@H]2C1=O` here?
Answer: Its value is inactive: -22.4%.

Question: `O=C(CCN1C(=O)C2C3C=CC(C3)C2C1=O)N1CCN(c2ccccc2F)CC1` (configuration not stated) was tested. Which “activation” value did it give?
Answer: The value was inactive: -28.6%.

Question: How did the “outcome” value turn out when `Cc1ccc(S(=O)(=O)c2cn(C)c3cc(N4CCOCC4)c(F)cc3c2=O)c(C)c1` was run?
Answer: The value was “inactive”.

Question: How did the Potency turn out when `COc1cc(C2c3cc4c(cc3OC(NNC(N)=O)C2C)OCO4)cc(OC)c1OC` (configuration not stated) was run?
Answer: Its Potency is inconclusive: 0.86 µM [activator, full curve, poor fit].

Question: For `CCN(CC)CCNc1ccc2nnc(CCNS(=O)(=O)c3ccc(C)cc3)n2n1`, which Potency is on record?
Answer: The Potency was inconclusive: 5.01 µM [activator, partial curve].

Question: With `Cc1csc(=O)n1CCC(=O)OCC(=O)NCc1ccc(Cl)cc1Cl` as the compound, how does the Potency read?
Answer: The Potency was inconclusive: 141 µM [activator, single point].

Question: With `O=[N+]([O-])c1cc(Cl)cc(/C=N/Nc2nc3ccccc3s2)c1O` as the compound, how does the “activation” value read?
Answer: Its value is inactive: -36.6%.

Question: With `O=C(CSc1ccccc1)NNC(=O)c1ccncc1` as the compound, how does the “activation” value read?
Answer: Its value is inactive: -15.2%.

Question: `O=C(Cn1nnc(-c2ccccc2)n1)N/N=C/c1cc([N+](=O)[O-])ccc1O` was tested. Which “activation” value did it give?
Answer: The value was inactive: -27%.

Question: Which “activation” value does the source give for `COc1cc(CNC(=O)C2CC(O)CN2C(=O)Nc2ccccc2)cc(OC)c1OC` (configuration not stated) here?
Answer: Its value is inactive: -18.1%.

Question: With `CCCN(CCC)CCCNC(=O)c1cc2c(-c3ccc(Cl)cc3)nn(C)c2s1` as the compound, how does the Potency read?
Answer: The Potency was inconclusive: 89.1 µM [activator, single point].

Question: For `CCO[C@H]1OC(C(=O)N2CCN(Cc3ccc4c(c3)OCO4)CC2)=C[C@@H](C2CCCCC2)[C@@H]1CCCO`, which “activation” value is on record?
Answer: Its value is inactive: -18%.

Question: `COc1cccc(CN2CCN(C(=O)c3ccco3)CC2)c1` was tested. Which Potency did it give?
Answer: The Potency was inconclusive: 17.8 µM [activator, partial curve].

Question: Which activation does the source give for `O=C(Nc1cccc(C(F)(F)F)c1)C1CCCN(S(=O)(=O)c2cccc3nsnc23)C1` (configuration not stated) here?
Answer: Its activation is inconclusive: -71.8% [activator].

Question: For `COc1ccc(S(=O)(=O)N2CCCCC2)cc1NC(=O)c1ccc(CS(C)(=O)=O)cc1`, which Potency is on record?
Answer: Its Potency is inconclusive: 17.8 µM [activator, partial curve].

Question: `S=C1NCCN1CC1CCN(CC2CCCC2)CC1` was tested. Which activation did it give?
Answer: Its activation is inconclusive: 31.5% [activator].

Question: With `OC(COC1CCCCC1)CN1CCCCC1` (configuration not stated) as the compound, how does the activation read?
Answer: The activation was inconclusive: 45% [activator].

Question: How did the Potency turn out when `O=[N+]([O-])c1ccccc1CCc1ccccc1[N+](=O)[O-]` was run?
Answer: Its Potency is inconclusive: 44.7 µM [activator, partial curve, poor fit].

Question: How did the Potency turn out when `COc1ccc(OC)c(NC(=O)Cn2nc3c(cc2=O)CCCC3)c1` was run?
Answer: Its Potency is inconclusive: 15.8 µM [activator, partial curve].

Question: Which Potency does the source give for `CCOC(=O)C1CCCN(C(=O)C2CCN(S(=O)(=O)c3cnc[nH]3)CC2)C1` (configuration not stated) here?
Answer: The Potency was inconclusive: 2 µM [activator, full curve, poor fit].

Question: How did the Potency turn out when `Cc1cc(OCC(=O)NCCc2ccc(Cl)cc2)c2c(C)cc(=O)oc2c1` was run?
Answer: The Potency was inconclusive: 44.7 µM [activator, partial curve, poor fit].

Question: With `CCOc1cc(NC(=S)NCc2ccccc2)c(OCC)cc1NC(=O)C(C)C` as the compound, how does the Potency read?
Answer: The Potency was inconclusive: 50.1 µM [activator, partial curve].

Question: Which “activation” value does the source give for `CCOc1ccc(N2C(=O)c3[nH]nc(-c4ccccc4)c3C2c2ccc(O)c(OC)c2)cc1` (configuration not stated) here?
Answer: Its value is inactive: -32.6%.
